Earlier results as cited in patent publication US9974767B2, “Statins in the treatment of muscular dystrophies and myopathies” (University of Washington, priority 2014, dated 2018).

Details: cited from earlier work

CC(C)c1c(C(=O)Nc2ccccc2)c(-c2ccccc2)c(-c2ccc(F)cc2)n1CC[C@@H](O)C[C@@H](O)CC(=O)O [atorvastatin]
rate and extent of absorption by time of administration (evening vs morning): lower during evening than morning | absorption when consumed with food (food intake): reduced absorption
